Source: the supplement of paper PMC9233669
Variants at the floor of the assay are shown more often than the library holds them.

Experiments:
biotinyl-Phe-oxazolone = test: self-aminoacylation, catalytic enhancement (BFO) (fold over background); higher = more active; k-Seq, kA / k0A0; sequences stand for … in GGGAAUGGAUCCACAUCUACGAAUUC…UUCACUGCAGACUUGACGAAGCUG
Summary of the method: (§1)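 Mutagenized RNA pools with a 21-nt variable region (0.43 μM) were reacted with each biotinyl-aminoacyl-oxazolone at 2–1250 μM for 90 minutes at room temperature, in 50 μL HEPES/NaCl/KCl/MgCl2/CaCl2 buffer containing 5% acetonitrile at pH 6.9–7.0. RNA captured on streptavidin was quantified by triplicate qPCR and by Illumina sequencing. The fraction reacted for each sequence was fit to a pseudo-first-order model with bootstrapping, and catalytic enhancement is the median kA divided by the uncatalyzed rate, taken as the low-activity peak of a bimodal Gaussian fit.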

biotinyl-Val-oxazolone = test: self-aminoacylation, catalytic enhancement (BVO) (fold over background); higher = more active; k-Seq, kA / k0A0; sequences stand for … in GGGAAUGGAUCCACAUCUACGAAUUC…UUCACUGCAGACUUGACGAAGCUG
Summary of the method: as §1

biotinyl-Leu-oxazolone = test: self-aminoacylation, catalytic enhancement (BLO) (fold over background); higher = more active; k-Seq, kA / k0A0; sequences stand for … in GGGAAUGGAUCCACAUCUACGAAUUC…UUCACUGCAGACUUGACGAAGCUG
Summary of the method: as §1

biotinyl-Ile-oxazolone = test: self-aminoacylation, catalytic enhancement (BIO) (fold over background); higher = more active; k-Seq, kA / k0A0; sequences stand for … in GGGAAUGGAUCCACAUCUACGAAUUC…UUCACUGCAGACUUGACGAAGCUG
Summary of the method: as §1

biotinyl-Trp-oxazolone = test: self-aminoacylation, catalytic enhancement (BWO) (fold over background); higher = more active; k-Seq, kA / k0A0; sequences stand for … in GGGAAUGGAUCCACAUCUACGAAUUC…UUCACUGCAGACUUGACGAAGCUG
Summary of the method: as §1

biotinyl-Met-oxazolone = test: self-aminoacylation, catalytic enhancement (BMO) (fold over background); higher = more active; k-Seq, kA / k0A0; sequences stand for … in GGGAAUGGAUCCACAUCUACGAAUUC…UUCACUGCAGACUUGACGAAGCUG
Summary of the method: as §1

Sequence	self-aminoacylation (biotinyl-Phe-oxazolone)	self-aminoacylation (biotinyl-Val-oxazolone)	self-aminoacylation (biotinyl-Leu-oxazolone)	self-aminoacylation (biotinyl-Ile-oxazolone)	self-aminoacylation (biotinyl-Trp-oxazolone)	self-aminoacylation (biotinyl-Met-oxazolone)
CUACUUCACACAAUCGGUCCG [Fam1A.1 aminoacylation ribozyme variant]	0.558	0.955	0.929	0.991	0.87	0.883
AAUUUUCCUAAUAGUCGCAAG [Fam3.1 aminoacylation ribozyme variant]	0.856	1.13	1.14	1.37	1.09	1.44
CCACACUUCAAGCAAUUGGUU [Fam1B.1 aminoacylation ribozyme variant]	1.04	1.29	1.23	1.16	1.11	1
CUACUUCAAACAAUCGGUCCA [Fam1A.1 aminoacylation ribozyme variant]	1.79	0.757	0.633	0.753	0.907	0.654
AUUCACCUAGUGCAUCGGGUG [Fam2.2 aminoacylation ribozyme variant]	5.22	1.63	2.12	1.35	1.17	1.62
AUUGAUCUAGGUCAUCGGGUG [Fam2.2 aminoacylation ribozyme variant]	35.2	3.8	7.89	4.45	7.06	6.53
CCACACUUCAAGCAAUCUGUU [Fam1B.1 aminoacylation ribozyme variant]	0.687	0.66	0.52	0.605	0.348	0.602
CCACCCUUCAAGCAAACGGUC [Fam1B.1 aminoacylation ribozyme variant]	0.74	0.911	0.789	0.73	0.681	0.611
AAGUUUGCUAUUAGUCGCGAG [Fam3.1 aminoacylation ribozyme variant]	4.31	1.03	1.73	1.39	2.3	1.34
CUACUUCAAACGAUCGGUCUU [Fam1A.1 aminoacylation ribozyme variant]	0.949	0.767	0.656	0.775	0.655	0.781
CCAAACUGCAAGCAAUCGGUC [Fam1B.1 aminoacylation ribozyme variant]	1.47	1.23	1.4	1.25	0.742	1.26
CUACUUCAAACUUUCGGUCUG [Fam1A.1 aminoacylation ribozyme variant]	1.12	1.24	1.24	1.23	1.09	1.21
CCUCACUUCAAGCACUCGGUC [Fam1B.1 aminoacylation ribozyme variant]	1.03	0.948	1.17	1.03	1.01	0.958
CAACACUUCAAGCACUCGGUC [Fam1B.1 aminoacylation ribozyme variant]	1.02	1.22	1.07	1.34	0.937	1.12
AAGUUUGCUAAUUGUCGUAAG [Fam3.1 aminoacylation ribozyme variant]	1.73	0.8	0.782	0.776	1.2	0.772
CAACUUCAAACAAUCGGUCUG [Fam1A.1 aminoacylation ribozyme variant]	97.7	1.53	2.61	1.57	44.8	1.7
ACUCACCUAGUUCAUCGGGUG [Fam2.2 aminoacylation ribozyme variant]	19.7	3.36	3.86	2.87	3.85	3.46
CGACUUGAAACAAUCGGUCUG [Fam1A.1 aminoacylation ribozyme variant]	0.925	1.57	1.54	1.34	1.54	1.25
AUUACCGUAGUCAUCGAGUGA [Fam2.1 aminoacylation ribozyme variant]	26	3.22	5.83	2.94	7.23	4.79
CUACUUCUCACAAUCGGUCUG [Fam1A.1 aminoacylation ribozyme variant]	0.575	0.711	0.665	0.69	0.711	0.563
AUUCACAUAGGUCUUCGGGUG [Fam2.2 aminoacylation ribozyme variant]	39.4	4.59	5.35	4.26	5.51	4.21
CUACUUCAAACAAUGGAUCUG [Fam1A.1 aminoacylation ribozyme variant]	0.857	0.881	0.736	0.876	0.398	0.715
AAGUCUGCUAAUAGUCGCAAA [Fam3.1 aminoacylation ribozyme variant]	2.14	1.48	1.33	1.33	1.86	1.57
UAGUUUGCUAAUAGGCGCAAG [Fam3.1 aminoacylation ribozyme variant]	1.38	0.979	0.854	1.17	0.869	0.882
CUACUUCAAAGAAUCUGUCUG [Fam1A.1 aminoacylation ribozyme variant]	1.11	0.696	0.616	0.674	0.654	0.567
CCACACUUCACGCAAUCGGUC [Fam1B.1 aminoacylation ribozyme variant]	0.864	1.13	0.883	0.959	0.865	0.853

Sequence	self-aminoacylation (biotinyl-Phe-oxazolone)	self-aminoacylation (biotinyl-Val-oxazolone)	self-aminoacylation (biotinyl-Leu-oxazolone)	self-aminoacylation (biotinyl-Ile-oxazolone)	self-aminoacylation (biotinyl-Trp-oxazolone)	self-aminoacylation (biotinyl-Met-oxazolone)
AAGUUUGCAAAUAGACGCAAG [Fam3.1 aminoacylation ribozyme variant]	1.08	0.728	0.683	0.729	0.642	0.592
CUACUUCAAACAAGCGGUCCG [Fam1A.1 aminoacylation ribozyme variant]	0.628	1.07	1.24	0.989	0.572	0.903
AAGUUUGCUAGUAGUCGCCAG [Fam3.1 aminoacylation ribozyme variant]	0.843	0.975	0.774	0.825	1.91	0.852
AUUAGCCUGGUCAUCGAUUGA [Fam2.1 aminoacylation ribozyme variant]	1.2	1.26	1.48	1.14	0.955	1.58
CUACUUCAAACAAUCGUGCUG [Fam1A.1 aminoacylation ribozyme variant]	1.07	0.6	0.753	0.645	0.748	0.666
AUUACCCUGUUCAUCGAGGGA [Fam2.1 aminoacylation ribozyme variant]	0.871	1.35	0.937	1.34	0.745	1.46
CCACACUUCAUGCAAUCAGUC [Fam1B.1 aminoacylation ribozyme variant]	0.895	0.751	0.634	0.731	0.427	0.628
ACGUUUGCUAAUAGUCGCUAG [Fam3.1 aminoacylation ribozyme variant]	1.69	1.24	1.28	1.28	1.06	1.19
AAGUUUGCUAGUAGUCGUAAG [Fam3.1 aminoacylation ribozyme variant]	1.49	0.76	0.614	0.718	0.662	0.715
CUUACCCUGUUCAUCGAGUGA [Fam2.1 aminoacylation ribozyme variant]	7.83	2.86	4.33	2.29	6.94	4.32
AAGUUUGCUAAUAGGCACAAG [Fam3.1 aminoacylation ribozyme variant]	1.37	0.735	0.742	0.799	0.552	0.755
CUACUUCAAACAAACGGUAUG [Fam1A.1 aminoacylation ribozyme variant]	0.892	0.723	0.638	0.599	0.462	0.61
AUUACCCUUGUCAUCGAGUCA [Fam2.1 aminoacylation ribozyme variant]	0.6	0.841	0.708	0.895	0.591	0.756
CUACUUCGAACAAUCGAUCUG [Fam1A.1 aminoacylation ribozyme variant]	0.525	0.645	0.648	0.7	0.41	0.424
AUUACCCUGGUCAUCGAAGGA [Fam2.1 aminoacylation ribozyme variant]	1.08	1.01	0.661	0.794	0.729	0.904
AAGUUAGCUAAUAGUCGCUAG [Fam3.1 aminoacylation ribozyme variant]	2.36	1.22	1.25	1.42	1.04	1.33
UCACACUUCAGGCAAUCGGUC [Fam1B.1 aminoacylation ribozyme variant]	1.39	1.39	1.32	1.31	1.34	1.36
AUUCACCUAGGACAUCAGGUG [Fam2.2 aminoacylation ribozyme variant]	0.743	1.19	1.22	1.19	1.12	1.22
AAGGUUACUAAUAGUCGCAAG [Fam3.1 aminoacylation ribozyme variant]	2.19	1.38	1.3	1.39	1.6	1.25
AUUCACCUAGGUAAUCGGGUU [Fam2.2 aminoacylation ribozyme variant]	0.331	1.16	1.17	0.997	0.977	1.09
CUAGUUCAAACUAUCGGUCUG [Fam1A.1 aminoacylation ribozyme variant]	1.05	1.04	1.21	1.25	1.16	1.25
CCACUCUUCAAGCAAACGGUC [Fam1B.1 aminoacylation ribozyme variant]	0.873	0.856	0.781	0.809	0.517	0.695
AUAACCCUGGUCACCGAGUGA [Fam2.1 aminoacylation ribozyme variant]	44	4.06	9.68	4.78	10.2	8.82
AAGUAUGCUAAUAGUGGCAAG [Fam3.1 aminoacylation ribozyme variant]	0.919	0.758	0.796	0.856	0.924	0.947
UCACACAUCAAGCAAUCGGUC [Fam1B.1 aminoacylation ribozyme variant]	1.33	0.999	0.72	0.82	0.855	0.821
